# Reference: PubChem BioAssay AID540303 (National Center for Advancing Translational Sciences (NCATS), 2011)
# Among all 330,000 compounds or so, about 1,000 (0.3%) were called active. This list was built around the results that the source calls inconclusive (neither active nor inactive); the mix of calls is not that of the screen. Calls come from the whole dose curve; as a rule, active = well fitted inhibition curve with a large enough effect; inconclusive = small, poorly fitted or top-dose-only effect; inactive = no such curve, though single readings can be large or run the other way; tested in mouse RAW 264.7 cells. Potencies of inconclusive entries are doubtful fits and often do not repeat.
# Experiment: qHTS for Inhibitors of Cell Surface uPA Generation; note: nearly all actives have a fitted effect of over 55% in size
# Settings: cell surface uPA generation assay; series mostly up to 38.3 µM; activity change, negative = inhibition: at the top concentration
# How it was run: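 Murine RAW 264.7 cells are treated for 24 h with compound up to 38.3 uM final. Cell ATP, measured by ATP-Lite, remains high if blocking the uPA cascade prevents LF from reaching the cytoplasm.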
# % is set by controls: 0 for no effect and ±100 for the full control effect; potency is the fitted concentration of half-maximal effect.
SMILES,Potency,"activity change, negative = inhibition"
CCOc1ccc(CCN2C(=S)N([C@@H](CC(C)C)CN3CCCC3CN3C(=S)NC[C@@H]3Cc3ccc(O)cc3)C[C@@H]2Cc2ccc(O)cc2)cc1 (stereo partly specified),"inconclusive: 28.2 µM [inhibitor, single point]",–
Cc1ccc(S(=O)(=O)c2c(C)nn(C(C)(C)C)c2OC(=O)C(C)C)cc1,"inconclusive: 11.2 µM [inhibitor, partial curve]",–
CCCc1cc(=O)[nH]c(SCC(=O)Nc2cc(S(=O)(=O)N3CCCCC3)ccc2C)n1,"inconclusive: 31.6 µM [inhibitor, single point]",–
CCCCC(=O)Nc1nc2ccc(C(=O)OC)cc2s1,"inconclusive: 2.24 µM [inhibitor, full curve, poor fit]",–
Cc1ccc2cccc(NC(=S)NC(=O)c3ccn(C)n3)c2n1,–,inactive: -12%
Cc1c(C(=O)NCc2cccnc2)sc2nc(-c3ccc(F)cc3)cn12,"inconclusive: 3.55 µM [inhibitor, partial curve, poor fit]",–
O=C1CC(Sc2nnc(-c3ccccc3O)o2)C(=O)N1c1ccccc1 (stereo unspecified),–,inactive: -22%
CCOC(=O)c1c(-c2cccs2)csc1NC(=O)CN1CCOCC1,–,inactive: -10.7%
CCO[C@@H]1OC(C(=O)Nc2ccccc2)=C[C@H](c2coc3ccccc3c2=O)[C@H]1CCCO,"inconclusive: 1.58 µM [inhibitor, single point]",–
COC(=O)c1ccccc1NC(=O)n1cc(C)cn1,–,inactive: 2.18%
CC(=O)Nc1ccc(Nc2cc(C(C)C)nc3c(-c4ccccc4)c(C)nn23)cc1,"inconclusive: 22.4 µM [inhibitor, single point]",–
COc1ccccc1N1CCN(C(c2cccs2)C(C)NC(=O)c2cccnc2)CC1 (stereo unspecified),–,inactive: -1.39%
CCCCCN(C(=O)CN1CCC(Cc2ccccc2)CC1)c1c(N)n(CCCC)c(=O)[nH]c1=O,–,inactive: 0.114%
OCCN(CCO)c1ncnc2c1sc1nc(N3CCOCC3)c3c(c12)CCCC3,–,inactive: -10.5%
O=S(=O)(c1ccc(NC(=S)N/N=C/c2c3ccccc3cc3ccccc23)cc1)N1CCOCC1,"inconclusive: 5.01 µM [inhibitor, partial curve, poor fit]",–
O=c1cc(-c2ccc(O)cc2)oc2c(-c3c(O)cc(O)c4c(=O)cc(-c5ccc(O)cc5)oc34)c(O)cc(O)c12,–,inactive: 7.04%
CCCCNc1ncnc2c1cnn2Cc1ccc(Cl)cc1,"inconclusive: 8.91 µM [inhibitor, single point]",–
CC(C)c1[nH]nc2c1C(C1C=CCCC1)C(C#N)=C(N)O2 (stereo unspecified),"inconclusive: 10 µM [inhibitor, partial curve, poor fit]",–
CC(=O)Nc1ccc(S(=O)(=O)N2c3ccc(F)cc3CCC2C)cc1 (stereo unspecified),active: 4.47 µM,–
Clc1ccc(OCc2nc(-c3ccncc3)no2)c(Br)c1,"inconclusive: 22.4 µM [inhibitor, single point]",–
CSc1cccc(NC(=O)N2CCc3ccc(NC(=O)c4ccccn4)cc3C2)c1,"inconclusive: 8.91 µM [inhibitor, partial curve, poor fit]",–
CCCC(C)c1nnc(NC(=O)CS(=O)(=O)Cc2ccccc2)s1 (stereo unspecified),–,inactive: 4.17%

# A second format for part of the listing above:
SMILES	Potency	activity change, negative = inhibition
Cc1ccc(S(=O)(=O)c2c(C)nn(C(C)(C)C)c2OC(=O)C(C)C)cc1	inconclusive: 11.2 µM [inhibitor, partial curve]	–
CCCCC(=O)Nc1nc2ccc(C(=O)OC)cc2s1	inconclusive: 2.24 µM [inhibitor, full curve, poor fit]	–
CC(C)c1[nH]nc2c1C(C1C=CCCC1)C(C#N)=C(N)O2 (stereo unspecified)	inconclusive: 10 µM [inhibitor, partial curve, poor fit]	–
Clc1ccc(OCc2nc(-c3ccncc3)no2)c(Br)c1	inconclusive: 22.4 µM [inhibitor, single point]	–

# (list continues)

SMILES,Potency,"activity change, negative = inhibition"
C/C(=N\Nc1nc(Nc2ccccc2)nc(N2CCOCC2)n1)c1cccs1,"inconclusive: 4.47 µM [inhibitor, partial curve, poor fit]",–
C/C(=N\NC(=O)c1ccc(O)cc1)c1cccc(NC(=O)c2ccccc2C)c1,active: 10 µM,–
CCc1ccc(CN(C)CC(=O)Nc2ccc(S(=O)(=O)N3CCOCC3)cc2)cc1,"inconclusive: 10 µM [inhibitor, partial curve, poor fit]",–
CCOc1ccc(N(Cc2ccccc2F)C2=NC3CS(=O)(=O)CC3S2)cc1 (stereo unspecified),"inconclusive: 12.6 µM [inhibitor, single point]",–
CCCCOC(=S)NC(=O)c1sc2ccccc2c1Cl,–,inactive: -7.78%
COC(=O)c1ccc([C@H]2CC(=O)O2)cc1,active: 4.47 µM,–
CCCS(=O)(=O)c1cnc(C2COc3ccccc3O2)nc1N (stereo unspecified),"inconclusive: 3.98 µM [inhibitor, partial curve, poor fit]",–
O=C(CCC1CCCN(C(=O)C2CCCC2)C1)NCc1ccc(F)c(F)c1 (stereo unspecified),–,inactive: -9.72%
CCC(C)c1ccccc1N1CC(C(=O)N2CCN(C(=O)c3ccco3)CC2)CC1=O (stereo unspecified),"inconclusive: 6.31 µM [inhibitor, partial curve, poor fit]",–
CCOC(=O)c1c(C)[n+]([O-])c2ccc3c(non3O)c12,"inconclusive: 0.0112 µM [inhibitor, full curve, poor fit]",–
CCOC(=O)/C=C/c1nc(C(=O)OCC)c(C)c(=O)[nH]1,"inconclusive: 11.2 µM [inhibitor, single point]",–
CCCCNc1c(-c2ccc(OC)c(Sc3ccc(OC)cc3)c2)nc2cnccn12,"inconclusive: 1.58 µM [inhibitor, full curve, poor fit]",–
COc1ccc(N2CCN(C(=O)CNC(=O)Cc3ccccc3)CC2)cc1,"inconclusive: 28.2 µM [inhibitor, single point]",–
O=C(Nc1ccccc1Cl)C(=O)c1cn(CC(=O)N2CCOCC2)c2ccccc12,"inconclusive: 3.55 µM [inhibitor, partial curve]",–
COc1cc(-c2oc3cc(O)cc(O)c3c(=O)c2O[C@@H]2O[C@H](COC3O[C@@H](C)[C@H](O)[C@@H](O)[C@H]3O)[C@@H](O)[C@H](O)[C@H]2O)ccc1O (stereo partly specified),"inconclusive: 4.47 µM [inhibitor, single point]",–
O=C(Nc1cccc(-c2csc(Nc3cccc(C(F)(F)F)c3)n2)c1)c1cc([N+](=O)[O-])cc(C(F)(F)F)c1,"inconclusive: 28.2 µM [inhibitor, single point]",–
CC(=O)O[C@@H](C[C@@H](C)C1=C2C[C@H](O)C3[C@@]4(C)CCC(=O)C(C)(C)C4CC[C@]3(C)[C@@]2(C)CC1)[C@H]1OC1(C)C (stereo partly specified),"inconclusive: 14.1 µM [inhibitor, single point]",–
O=C(Nc1cccc(Br)c1)c1ccc2c(c1)SC1=NS(=O)(=O)CCN12,"inconclusive: 5.62 µM [inhibitor, partial curve, poor fit]",–
CN(Cc1ccccc1)C(=O)c1[nH]cnc1C(=O)NCCCCCNC(=O)OC(C)(C)C,"inconclusive: 6.31 µM [inhibitor, partial curve, poor fit]",–
C/C(=N\Nc1nc(C)cc(-c2ccccc2)n1)c1cccc(N)c1,active: 10 µM,–
CCN1CCN(Cc2ccc(NC(=O)c3ccc(C)c(/C=C/c4cnc(Nc5cc(N6CCNCC6)nc(C)n5)cn4)c3)cc2C(F)(F)F)CC1,"inconclusive: 0.0251 µM [inhibitor, full curve, poor fit]",–
COc1cccc(C(=O)Nc2ccc(N3CCN(C(=O)c4cccs4)CC3)cc2)c1,"inconclusive: 1.41 µM [inhibitor, full curve, poor fit]",–

SMILES,Potency,"activity change, negative = inhibition"
COc1ccc(C(=O)N2CCOC2CNC(=O)C(=O)NCc2ccc(F)cc2)cc1 (stereo unspecified),–,inactive: 0.453%
Brc1ccc(CSc2nccn2-c2ccccc2)cc1,–,inactive: 4.03%
O=S(=O)(c1ccc2ccccc2c1)N1CCN=C1SCc1cccnc1,–,inactive: 7.99%
Oc1cc(NCc2ccc(F)cc2)cc2cccnc12,"inconclusive: 7.94 µM [inhibitor, single point]",–
COc1ccc2cc(-c3ccsc3)ncc2c1,active: 8.91 µM,–
Cc1ccc(CNC(=O)Nc2ccccc2)cc1,–,inactive: -3.56%
CCOc1cc(NC(=O)CCl)c(OCC)cc1NC(=O)CCl,–,inactive: -14.7%
CCOC(=O)c1[nH]c(=O)[nH]c1CSc1nc(C)cc(C)n1,–,inactive: 4.58%
CC(C)c1csc(CN2CCCC(CCC(=O)NCc3ccccc3F)C2)n1 (stereo unspecified),"inconclusive: 12.6 µM [inhibitor, single point]",–
Cc1ccc(S(=O)(=O)N2CCN(CC(=O)Nc3ccnn3C3CCCC3)CC2)cc1,"inconclusive: 0.891 µM [inhibitor, full curve, poor fit]",–
Cc1cc(C(=O)N/N=C/c2ccc3ccccc3c2)n[nH]1,"inconclusive: 5.62 µM [inhibitor, partial curve, poor fit]",–
O=C(NC(=S)Nc1ccc(CN2CCOCC2)cc1)c1ccc([N+](=O)[O-])cc1,–,inactive: 0.825%
CN(C)c1ccc(/C=N/NC(=O)C2CC2c2ccccc2)cc1 (stereo unspecified),"inconclusive: 3.55 µM [inhibitor, partial curve, poor fit]",–
CCc1noc(C)c1C(=O)Oc1ccc(N(C)S(=O)(=O)c2ccc(C)cc2)cc1,"inconclusive: 10 µM [inhibitor, single point]",–
O=C(NCC1CCCO1)c1cccc(Oc2c(Cl)cccc2[N+](=O)[O-])c1 (stereo unspecified),"inconclusive: 12.6 µM [inhibitor, single point]",–
COc1cc(-c2nnc3sc(Cc4ccc(Cl)cc4)nn23)cc(OC)c1OC,"inconclusive: 31.6 µM [inhibitor, partial curve, poor fit]",–
O=C(NCC(=O)N1CCN(c2ncccn2)CC1)c1ccc(F)cc1,–,inactive: 5.13%
COc1ccc(Nc2nc(-c3sc(C)nc3C)cs2)c(OC)c1,active: 4.47 µM,–
CCOc1ccc(-c2c(C#N)c(N)nc3sc(C(=O)c4ccccc4)c(N)c23)cc1,–,inactive: 12.8%
O=C(NO)C1CC2C=CC1C2 (stereo unspecified),"inconclusive: 2.82 µM [inhibitor, partial curve, poor fit]",–
Cc1nc2cc(NC(=O)N3c4ccccc4CC3C)ccc2n1C (stereo unspecified),"inconclusive: 2 µM [inhibitor, full curve, poor fit]",–
O=C1C=C(c2ccc(O)cc2)C[C@@H](c2ccc3c(c2)OCO3)C1,"inconclusive: 10 µM [inhibitor, single point]",–
